Taken from: PubChem BioAssay AID1259405 (NCATS, 2018)
The whole screen tested about 50,000 reagents; below is a random part of them. About 4,000 of them (8%) count as active. 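Mouse siRNA library applied to hamster cells; one well for each siRNA.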 Entries without a mark were called inactive. Reagents against one gene are numbered here. No sequences are given here.

Assay: 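Silenced genes that increase secreted GFP made by CHO cells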 (primary screen)
System: Chinese hamster CHO-K1 ovary cells with stable secreted eGFP expression
Knock-down reagent: single siRNA against mouse genes, 0.8 pmol siRNA per well (2 µl of 400 nM stock)
Time to read-out: 3 days
Detection: 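Percent of the per-plate non-targeting control median for intracellular GFP per well by laser scanning cytometry and for cell viability by ATP luminescence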
Direction: GFP, % of control: higher = more GFP per well, higher productivity; viability (ATP), % of control: higher = more viable cells (more ATP)
Active means: 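Called active when intracellular GFP, relative to negative control, is at or above 120%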

Or4a2 (GeneID 258972) #1 showed GFP, % of control 95.4; viability (ATP), % of control 74.7.
Depletion of Or4a2 (GeneID 258972) #2 resulted in: GFP, % of control 37.1; viability (ATP), % of control 51.9.
After knock-down of Or4a2 (GeneID 258972) #3 the results were GFP, % of control 61.1; viability (ATP), % of control 56.6.
With knock-down of Rab17 (GeneID 19329) #1, the record shows GFP, % of control 61.6; viability (ATP), % of control 89.4.
Rab17 (GeneID 19329) #2 showed GFP, % of control 114; viability (ATP), % of control 92.6.
Rab17 (GeneID 19329) #3 showed GFP, % of control 70.5; viability (ATP), % of control 79.2.
Coa4 (GeneID 68185) #1 showed GFP, % of control 84.9; viability (ATP), % of control 84.
With knock-down of Coa4 (GeneID 68185) #2, the record shows GFP, % of control 72.1; viability (ATP), % of control 77.9.
Knock-down of Coa4 (GeneID 68185) #3 came out at: GFP, % of control 156 (active); viability (ATP), % of control 127.
For Tspan8 (GeneID 216350) #1, the values are GFP, % of control 114; viability (ATP), % of control 80.3.
Silencing of Tspan8 (GeneID 216350) #2 gave: GFP, % of control 49.1; viability (ATP), % of control 58.1.
Knock-down of Tspan8 (GeneID 216350) #3 resulted in: GFP, % of control 76; viability (ATP), % of control 79.1.
For Or52e8b (GeneID 258147) #1, the values are GFP, % of control 60.3; viability (ATP), % of control 63.3.
With knock-down of Or52e8b (GeneID 258147) #2, the screen gave GFP, % of control 115; viability (ATP), % of control 85.7.
Silencing of Or52e8b (GeneID 258147) #3 gave: GFP, % of control 63.7; viability (ATP), % of control 111.
After knock-down of Txndc16 (GeneID 70561) #1, the screen gave GFP, % of control 11.3; viability (ATP), % of control 16.6.
Txndc16 (GeneID 70561) #2 gave GFP, % of control 58.9; viability (ATP), % of control 69.2.
Depletion of Txndc16 (GeneID 70561) #3 gave: GFP, % of control 100; viability (ATP), % of control 91.9.
Silencing of Il34 (GeneID 76527) #1 gave: GFP, % of control 191 (active); viability (ATP), % of control 124.
Silencing of Il34 (GeneID 76527) #2 resulted in: GFP, % of control 51.5; viability (ATP), % of control 86.6.
With knock-down of Il34 (GeneID 76527) #3 the results were GFP, % of control 73.9; viability (ATP), % of control 80.4.
Gpx6 (GeneID 75512) #1 gave GFP, % of control 138 (active); viability (ATP), % of control 110.
Gpx6 (GeneID 75512) #2 showed GFP, % of control 87.4; viability (ATP), % of control 84.5.
Gpx6 (GeneID 75512) #3 scored GFP, % of control 57; viability (ATP), % of control 66.3.
After knock-down of Psmc1 (GeneID 19179) #1, the screen gave GFP, % of control 91.8; viability (ATP), % of control 90.1.
Knock-down of Psmc1 (GeneID 19179) #2 resulted in: GFP, % of control 110; viability (ATP), % of control 103.
Psmc1 (GeneID 19179) #3 showed GFP, % of control 32.4; viability (ATP), % of control 9.13.
Knock-down of 1110059E24Rik (GeneID 66206) #1 resulted in: GFP, % of control 58.9; viability (ATP), % of control 72.1.
After knock-down of 1110059E24Rik (GeneID 66206) #2, the record shows GFP, % of control 94; viability (ATP), % of control 66.7.
Against 1110059E24Rik (GeneID 66206) #3 the deposit lists GFP, % of control 55; viability (ATP), % of control 72.
Depletion of Klf5 (GeneID 12224) #1 came out at: GFP, % of control 94.5; viability (ATP), % of control 110.
Silencing of Klf5 (GeneID 12224) #2 gave: GFP, % of control 70.9; viability (ATP), % of control 76.7.
Against Klf5 (GeneID 12224) #3 the deposit lists GFP, % of control 83.4; viability (ATP), % of control 94.3.
Depletion of Drd4 (GeneID 13491) #1 came out at: GFP, % of control 107; viability (ATP), % of control 57.2.
After knock-down of Drd4 (GeneID 13491) #2, the record shows GFP, % of control 77.1; viability (ATP), % of control 56.7.
Against Drd4 (GeneID 13491) #3, the entry reads GFP, % of control 86.8; viability (ATP), % of control 74.8.
After knock-down of Rbbp5 (GeneID 213464) #1, the record shows GFP, % of control 78.2; viability (ATP), % of control 81.6.
With knock-down of Rbbp5 (GeneID 213464) #2, the screen gave GFP, % of control 87.3; viability (ATP), % of control 85.8.
Nptx2 (GeneID 53324) #1 gave GFP, % of control 91.4; viability (ATP), % of control 94.5.
Nptx2 (GeneID 53324) #2 showed GFP, % of control 89.5; viability (ATP), % of control 79.8.
Dimt1 (GeneID 66254) #1 showed GFP, % of control 75.3; viability (ATP), % of control 67.4.
For Dimt1 (GeneID 66254) #2 the deposit lists GFP, % of control 79.3; viability (ATP), % of control 103.
Dimt1 (GeneID 66254) #3 gave GFP, % of control 61.4; viability (ATP), % of control 58.3.
For 1700029M20Rik (GeneID 73937) #1 the deposit lists GFP, % of control 48.4; viability (ATP), % of control 42.8.
Against 1700029M20Rik (GeneID 73937) #2, the values are GFP, % of control 83.4; viability (ATP), % of control 67.1.
After knock-down of 1700029M20Rik (GeneID 73937) #3, the screen gave GFP, % of control 54.3; viability (ATP), % of control 72.4.
Themis (GeneID 210757) #1 gave GFP, % of control 85.9; viability (ATP), % of control 81.9.
Silencing of Themis (GeneID 210757) #2 resulted in: GFP, % of control 93.2; viability (ATP), % of control 78.8.
Against Themis (GeneID 210757) #3, the values are GFP, % of control 96.3; viability (ATP), % of control 89.9.
Ostm1 (GeneID 14628) #1 gave GFP, % of control 150 (active); viability (ATP), % of control 89.6.
Depletion of Ostm1 (GeneID 14628) #2 resulted in: GFP, % of control 102; viability (ATP), % of control 73.1.
Against Ostm1 (GeneID 14628) #3 the deposit lists GFP, % of control 130 (active); viability (ATP), % of control 79.5.

A run of entries from the list above:
Psmc1 (GeneID 19179) #2 — GFP, % of control: 110; viability (ATP), % of control: 103
Psmc1 (GeneID 19179) #3 — GFP, % of control: 32.4; viability (ATP), % of control: 9.13
1110059E24Rik (GeneID 66206) #1 — GFP, % of control: 58.9; viability (ATP), % of control: 72.1
1110059E24Rik (GeneID 66206) #2 — GFP, % of control: 94; viability (ATP), % of control: 66.7
1110059E24Rik (GeneID 66206) #3 — GFP, % of control: 55; viability (ATP), % of control: 72
Klf5 (GeneID 12224) #1 — GFP, % of control: 94.5; viability (ATP), % of control: 110
Klf5 (GeneID 12224) #2 — GFP, % of control: 70.9; viability (ATP), % of control: 76.7
